From the supplement of paper PMC8728848
Some of the results follow.

How the values were obtained:
Assay in all cases: glycan array binding signal (z-score within array); higher = stronger binding
Conditions in all cases: glycan notation: IUPAC condensed, linker removed
[1] = target: Gal(b1-3)GlcNAc(b1-2)Man(a1-3)[Gal(b1-3)GlcNAc(b1-2)Man(a1-6)]Man(b1-4)GlcNAc(b1-4)[Fuc(a1-6)]GlcNAc
Procedure, shortened: (§1)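 The binding signal is a Z-score computed within each array and averaged over linkers. Arrays of the same protein sequence at different concentrations or buffers were also averaged together. Data originate from 3228 arrays in the Consortium for Functional Glycomics database, kept only where the protein sequence was available.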

[2] = target: Gal(b1-3)GlcNAc(b1-2)Man(a1-3)[GlcNAc(b1-4)][Gal(b1-3)GlcNAc(b1-2)Man(a1-6)]Man(b1-4)GlcNAc(b1-4)GlcNAc
Procedure, shortened: as §1

[3] = target: Gal(b1-3)GlcNAc(b1-2)[Gal(b1-3)GlcNAc(b1-6)]Man(a1-6)[Gal(b1-3)GlcNAc(b1-2)Man(a1-3)]Man(b1-4)GlcNAc(b1-4)GlcNAc
Procedure, shortened: as §1

[4] = target: Gal(b1-3)GlcNAc(b1-3)Gal(b1-3)GlcNAc
Procedure, shortened: as §1

[5] = target: Gal(b1-3)GlcNAc(b1-3)Gal(b1-4)Glc
Procedure, shortened: as §1

[6] = target: Gal(b1-3)GlcNAc(b1-3)Gal(b1-4)GlcNAc
Procedure, shortened: as §1

[7] = target: Gal(b1-3)GlcNAc(b1-3)Gal(b1-4)GlcNAc(b1-2)Man(a1-3)[Gal(b1-3)GlcNAc(b1-3)Gal(b1-4)GlcNAc(b1-2)Man(a1-6)]Man(b1-4)GlcNAc(b1-4)GlcNAc
Procedure, shortened: as §1

[8] = target: Gal(b1-3)GlcNAc(b1-3)Gal(b1-4)GlcNAc(b1-2)[Gal(b1-3)GlcNAc(b1-3)Gal(b1-4)GlcNAc(b1-6)]Man(a1-6)[Gal(b1-3)GlcNAc(b1-3)Gal(b1-4)GlcNAc(b1-2)Man(a1-3)]Man(b1-4)GlcNAc(b1-4)[Fuc(a1-6)]GlcNAc
Procedure, shortened: as §1

[9] = target: Gal(b1-3)GlcNAc(b1-3)Gal(b1-4)GlcNAc(b1-3)Gal(b1-4)GlcNAc(b1-2)[Gal(b1-3)GlcNAc(b1-3)Gal(b1-4)GlcNAc(b1-3)Gal(b1-4)GlcNAc(b1-6)]Man(a1-6)[Gal(b1-3)GlcNAc(b1-3)Gal(b1-4)GlcNAc(b1-3)Gal(b1-4)GlcNAc(b1-2)Man(a1-3)]Man(b1-4)GlcNAc(b1-4)[Fuc(a1-6)]GlcNAc
Procedure, shortened: as §1

[10] = target: Gal(b1-3)GlcNAc(b1-3)Gal(b1-4)GlcNAc(b1-6)[Gal(b1-3)GlcNAc(b1-3)]Gal(b1-4)Glc
Procedure, shortened: as §1

[11] = target: Gal(b1-3)GlcNAc(b1-3)Gal(b1-4)[Fuc(a1-3)]GlcNAc(b1-6)[Gal(b1-3)GlcNAc(b1-3)]Gal(b1-4)Glc
Procedure, shortened: as §1

[12] = target: Gal(b1-3)GlcNAc(b1-3)GalNAc
Procedure, shortened: as §1

[13] = target: Gal(b1-3)GlcNAc(b1-6)Gal(b1-4)GlcNAc
Procedure, shortened: as §1

[14] = target: Gal(b1-3)GlcNAc(b1-6)GalNAc
Procedure, shortened: as §1

[15] = target: Gal(b1-3)GlcNAc(b1-6)[Gal(b1-3)]GalNAc
Procedure, shortened: as §1

Gal(b1-3)GlcNAc6S = target: Gal(b1-3)GlcNAc6S
Procedure, shortened: as §1

[16] = target: Gal(b1-3)[Fuc(a1-4)]GlcNAc
Procedure, shortened: as §1

[17] = target: Gal(b1-3)[Fuc(a1-4)]GlcNAc(b1-2)Man
Procedure, shortened: as §1

[18] = target: Gal(b1-3)[Fuc(a1-4)]GlcNAc(b1-2)Man(a1-3)[Gal(b1-3)[Fuc(a1-4)]GlcNAc(b1-2)Man(a1-6)]Man(b1-4)GlcNAc(b1-4)[Fuc(a1-6)]GlcNAc
Procedure, shortened: as §1

[19] = target: Gal(b1-3)[Fuc(a1-4)]GlcNAc(b1-3)Gal(b1-3)[Fuc(a1-4)]GlcNAc
Procedure, shortened: as §1

[20] = target: Gal(b1-3)[Fuc(a1-4)]GlcNAc(b1-3)Gal(b1-4)GlcNAc
Procedure, shortened: as §1

[21] = target: Gal(b1-3)[Fuc(a1-4)]GlcNAc(b1-3)Gal(b1-4)[Fuc(a1-3)]GlcNAc
Procedure, shortened: as §1

[22] = target: Gal(b1-3)[Fuc(a1-4)]GlcNAc(b1-6)GalNAc
Procedure, shortened: as §1

[23] = target: Gal(b1-3)[GlcNAc(b1-6)]GalNAc
Procedure, shortened: as §1

[24] = target: Gal(b1-3)[Neu5Ac(a2-6)]GalNAc
Procedure, shortened: as §1

[25] = target: Gal(b1-3)[Neu5Ac(a2-6)]GlcNAc(b1-4)Gal(b1-4)Glc
Procedure, shortened: as §1

[26] = target: Gal(b1-3)[Neu5Ac(b2-6)]GalNAc
Procedure, shortened: as §1

Gal(b1-4)Gal = target: Gal(b1-4)Gal
Procedure, shortened: as §1

[27] = target: Gal(b1-4)GalNAc(a1-3)[Fuc(a1-2)]Gal(b1-4)GlcNAc
Procedure, shortened: as §1

[28] = target: Gal(b1-4)GalNAc(b1-3)[Fuc(a1-2)]Gal(b1-4)GlcNAc
Procedure, shortened: as §1

B1: CD4 (Rattus norvegicus), P05540 (protein)
chain: MCRGFSFRHLLPLLLLQLSKLLVVTQGSTSITAYKSEGESAEFSFPLNLGEESLQGELRWKAEKAPSSQSWITFSLKNQKVSVQKSTSNPKFQLSETLPLTLQIPQVSLQFAGSGNLTLTLDRGILYQEVNLVVMKVTQPDSNTLTCEVMGPTSPKMRLILKQENQEARVSRQEKVIQVQAPEAGVWQCLLSEGEEVKMDSKIQVLSKGLNSGGGSGGGTGGGDLAPQMLRELQETNAALQDVRELLRQQVKEITFLKNTVMECDACGLDRNLPPLAPLGPHPETLVKVKDAEDQLGARVGYIELDLNSGKILESFRPEERFPMMSTFKVLLCGAVLSRIDAGQEQLGRRIHYSQNDLVEYSPVTEKHLTDGMTVRELCSAAITMSDNTAANLLLTTIGGPKELTAFLHNMGDHVTRLDRWEPELNEAIPNDERDTTMPVAMATTLRKLLTGELLTLASRQQLIDWMEADKVAGPLLRSALPAGWFIADKSGAGERGSRGIIAALGPDGKPSRIVVIYTTGSQATMDERNRQIAEIGASLIKHW
glycan array binding signal (z-score) [1]: -0.068
glycan array binding signal (z-score) [2]: 0.997
glycan array binding signal (z-score) [3]: 1.64
glycan array binding signal (z-score) [4]: -0.783
glycan array binding signal (z-score) [5]: -0.039
glycan array binding signal (z-score) [6]: 0.41
glycan array binding signal (z-score) [7]: 0.423
glycan array binding signal (z-score) [8]: 0.679
glycan array binding signal (z-score) [9]: 1.37
glycan array binding signal (z-score) [10]: 0.253
glycan array binding signal (z-score) [11]: 0.64
glycan array binding signal (z-score) [12]: 0.109
glycan array binding signal (z-score) [13]: -1.04
glycan array binding signal (z-score) [14]: -1.94
glycan array binding signal (z-score) [15]: -0.103
glycan array binding signal (z-score) (Gal(b1-3)GlcNAc6S): 0.978
glycan array binding signal (z-score) [16]: -0.474
glycan array binding signal (z-score) [17]: 0.451
glycan array binding signal (z-score) [18]: 1.36
glycan array binding signal (z-score) [19]: -0.05
glycan array binding signal (z-score) [20]: -0.072
glycan array binding signal (z-score) [21]: 0.219
glycan array binding signal (z-score) [22]: 0.698
glycan array binding signal (z-score) [23]: 0.137
glycan array binding signal (z-score) [24]: -1.09
glycan array binding signal (z-score) [25]: 0.185
glycan array binding signal (z-score) [26]: 0.019
glycan array binding signal (z-score) (Gal(b1-4)Gal): -0.519
glycan array binding signal (z-score) [27]: 2.27
glycan array binding signal (z-score) [28]: -0.768
